These are yes or no findings as the source states them, for the method shown. In cells and extracts the contact can be indirect. These calls come from enrichment with a bait or labelling near it, and not all partners need be listed.
Biological target: Flag-tagged Citron kinase (Flag::CIT-K) (human) (UniProt O14578)
Assay: affinity purification with mass spectrometry; Flag::CIT-K captured on anti-FLAG M2 magnetic beads from extracts of HeLa Kyoto cells synchronized in telophase (thymidine-nocodazole block and release, RO3306); 4°C; extraction buffer 50 mM HEPES pH 7.5, 100 mM KAc, 150 mM NaCl, 2 mM MgCl2, 1 mM EGTA, 0.5% NP-40; LC-MS/MS; compared with Flag alone

The chains behind the UniProt entries cited, without tags or fusion partners. Where a name states a change or a piece, a line headed by the entry shows the natural chain unless it says otherwise. A line that says so, or that is headed by a name, gives the form on record, which may keep a tag or linker.
Flag-tagged Citron kinase (Flag::CIT-K) (O14578, form named): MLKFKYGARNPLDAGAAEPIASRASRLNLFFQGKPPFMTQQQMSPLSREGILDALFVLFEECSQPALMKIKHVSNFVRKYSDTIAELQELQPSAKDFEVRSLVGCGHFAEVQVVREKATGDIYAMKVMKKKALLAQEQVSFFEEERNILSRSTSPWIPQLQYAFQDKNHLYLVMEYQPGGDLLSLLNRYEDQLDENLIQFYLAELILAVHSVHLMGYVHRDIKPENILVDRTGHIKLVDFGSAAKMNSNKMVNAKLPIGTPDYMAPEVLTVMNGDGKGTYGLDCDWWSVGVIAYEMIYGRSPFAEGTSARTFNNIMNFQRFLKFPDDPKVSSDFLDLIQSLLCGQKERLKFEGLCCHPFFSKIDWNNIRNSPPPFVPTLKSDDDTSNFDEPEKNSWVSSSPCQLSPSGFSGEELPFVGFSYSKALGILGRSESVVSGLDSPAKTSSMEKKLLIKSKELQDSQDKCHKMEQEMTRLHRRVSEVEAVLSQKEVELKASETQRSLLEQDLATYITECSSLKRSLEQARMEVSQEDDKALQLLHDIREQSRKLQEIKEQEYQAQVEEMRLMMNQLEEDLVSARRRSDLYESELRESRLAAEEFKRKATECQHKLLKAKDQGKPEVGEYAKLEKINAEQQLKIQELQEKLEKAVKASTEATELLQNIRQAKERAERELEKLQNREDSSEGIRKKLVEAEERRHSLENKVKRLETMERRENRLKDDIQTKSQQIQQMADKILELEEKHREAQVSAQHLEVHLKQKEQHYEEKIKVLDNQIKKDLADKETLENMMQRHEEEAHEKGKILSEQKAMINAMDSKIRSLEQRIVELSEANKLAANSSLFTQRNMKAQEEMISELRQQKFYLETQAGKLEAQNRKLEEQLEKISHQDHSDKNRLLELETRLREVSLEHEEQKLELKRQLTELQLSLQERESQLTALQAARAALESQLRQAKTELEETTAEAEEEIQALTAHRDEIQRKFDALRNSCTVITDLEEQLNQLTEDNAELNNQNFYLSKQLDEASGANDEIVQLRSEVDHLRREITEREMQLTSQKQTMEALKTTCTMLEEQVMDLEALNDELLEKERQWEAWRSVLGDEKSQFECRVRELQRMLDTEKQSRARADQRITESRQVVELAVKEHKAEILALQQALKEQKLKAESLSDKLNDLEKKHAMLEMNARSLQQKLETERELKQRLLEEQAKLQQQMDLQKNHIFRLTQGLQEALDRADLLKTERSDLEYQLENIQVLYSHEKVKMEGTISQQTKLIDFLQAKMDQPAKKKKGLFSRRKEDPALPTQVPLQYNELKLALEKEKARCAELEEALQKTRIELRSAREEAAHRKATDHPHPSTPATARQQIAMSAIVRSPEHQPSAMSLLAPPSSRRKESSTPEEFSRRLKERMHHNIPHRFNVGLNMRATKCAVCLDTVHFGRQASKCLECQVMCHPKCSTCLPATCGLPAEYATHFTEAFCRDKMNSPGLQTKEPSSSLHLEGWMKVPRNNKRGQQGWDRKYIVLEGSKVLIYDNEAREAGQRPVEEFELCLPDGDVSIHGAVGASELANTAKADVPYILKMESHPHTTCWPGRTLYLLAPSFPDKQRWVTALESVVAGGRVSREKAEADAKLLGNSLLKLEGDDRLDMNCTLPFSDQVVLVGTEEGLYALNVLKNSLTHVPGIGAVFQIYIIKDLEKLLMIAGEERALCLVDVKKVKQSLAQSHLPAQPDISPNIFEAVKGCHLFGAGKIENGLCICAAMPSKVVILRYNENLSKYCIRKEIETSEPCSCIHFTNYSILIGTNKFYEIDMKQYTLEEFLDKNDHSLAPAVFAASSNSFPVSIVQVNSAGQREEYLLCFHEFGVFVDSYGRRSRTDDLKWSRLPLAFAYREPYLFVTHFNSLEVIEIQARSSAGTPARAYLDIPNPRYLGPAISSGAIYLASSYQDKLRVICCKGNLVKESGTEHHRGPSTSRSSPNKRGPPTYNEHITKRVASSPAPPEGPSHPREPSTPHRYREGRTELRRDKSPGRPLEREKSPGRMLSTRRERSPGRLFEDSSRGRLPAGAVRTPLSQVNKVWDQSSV
UniProt Q9NQS7: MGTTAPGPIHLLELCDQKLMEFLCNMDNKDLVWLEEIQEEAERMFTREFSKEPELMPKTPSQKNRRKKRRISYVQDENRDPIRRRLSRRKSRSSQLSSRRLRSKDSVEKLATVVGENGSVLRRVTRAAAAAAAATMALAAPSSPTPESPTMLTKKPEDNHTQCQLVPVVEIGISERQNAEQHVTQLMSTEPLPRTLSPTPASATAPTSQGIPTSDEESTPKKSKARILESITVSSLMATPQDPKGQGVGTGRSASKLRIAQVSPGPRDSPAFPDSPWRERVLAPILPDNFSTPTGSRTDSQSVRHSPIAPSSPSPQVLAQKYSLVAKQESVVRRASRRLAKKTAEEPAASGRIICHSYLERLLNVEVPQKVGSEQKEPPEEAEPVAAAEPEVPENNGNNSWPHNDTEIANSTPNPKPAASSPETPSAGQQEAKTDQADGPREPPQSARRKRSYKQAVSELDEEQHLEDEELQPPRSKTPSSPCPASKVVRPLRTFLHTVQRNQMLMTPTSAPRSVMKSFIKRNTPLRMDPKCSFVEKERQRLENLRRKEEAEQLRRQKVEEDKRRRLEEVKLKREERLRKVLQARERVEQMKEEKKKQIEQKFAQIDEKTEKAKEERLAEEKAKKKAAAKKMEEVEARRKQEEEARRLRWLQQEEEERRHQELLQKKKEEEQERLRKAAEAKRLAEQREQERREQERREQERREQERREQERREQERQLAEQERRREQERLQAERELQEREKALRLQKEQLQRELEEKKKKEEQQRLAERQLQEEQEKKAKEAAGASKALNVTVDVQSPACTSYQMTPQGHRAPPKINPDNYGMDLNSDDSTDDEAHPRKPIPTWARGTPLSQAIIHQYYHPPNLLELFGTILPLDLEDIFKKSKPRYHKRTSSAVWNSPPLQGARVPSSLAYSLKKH
UniProt O95235: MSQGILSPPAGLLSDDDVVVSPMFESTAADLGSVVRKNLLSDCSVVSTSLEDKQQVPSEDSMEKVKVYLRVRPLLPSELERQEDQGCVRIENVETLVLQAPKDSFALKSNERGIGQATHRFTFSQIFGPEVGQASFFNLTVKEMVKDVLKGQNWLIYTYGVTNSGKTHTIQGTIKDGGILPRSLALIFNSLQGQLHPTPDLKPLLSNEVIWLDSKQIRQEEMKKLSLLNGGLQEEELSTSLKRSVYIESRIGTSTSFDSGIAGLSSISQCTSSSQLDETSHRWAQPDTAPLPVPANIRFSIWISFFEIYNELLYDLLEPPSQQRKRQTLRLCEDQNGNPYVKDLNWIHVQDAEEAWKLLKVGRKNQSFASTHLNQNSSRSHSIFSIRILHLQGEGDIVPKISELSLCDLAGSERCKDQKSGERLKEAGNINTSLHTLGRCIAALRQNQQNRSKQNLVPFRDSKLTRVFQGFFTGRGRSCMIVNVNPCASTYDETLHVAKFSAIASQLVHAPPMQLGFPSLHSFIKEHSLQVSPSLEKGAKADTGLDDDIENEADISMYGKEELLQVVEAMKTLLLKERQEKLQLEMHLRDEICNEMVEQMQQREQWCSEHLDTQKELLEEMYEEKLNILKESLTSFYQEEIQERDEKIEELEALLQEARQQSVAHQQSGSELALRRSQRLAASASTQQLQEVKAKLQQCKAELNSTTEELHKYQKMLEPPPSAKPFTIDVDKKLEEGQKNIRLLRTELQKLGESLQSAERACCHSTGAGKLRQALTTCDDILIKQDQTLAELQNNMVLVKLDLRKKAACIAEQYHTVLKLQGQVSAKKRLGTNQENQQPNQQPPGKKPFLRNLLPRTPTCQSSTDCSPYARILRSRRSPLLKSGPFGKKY
UniProt Q15058: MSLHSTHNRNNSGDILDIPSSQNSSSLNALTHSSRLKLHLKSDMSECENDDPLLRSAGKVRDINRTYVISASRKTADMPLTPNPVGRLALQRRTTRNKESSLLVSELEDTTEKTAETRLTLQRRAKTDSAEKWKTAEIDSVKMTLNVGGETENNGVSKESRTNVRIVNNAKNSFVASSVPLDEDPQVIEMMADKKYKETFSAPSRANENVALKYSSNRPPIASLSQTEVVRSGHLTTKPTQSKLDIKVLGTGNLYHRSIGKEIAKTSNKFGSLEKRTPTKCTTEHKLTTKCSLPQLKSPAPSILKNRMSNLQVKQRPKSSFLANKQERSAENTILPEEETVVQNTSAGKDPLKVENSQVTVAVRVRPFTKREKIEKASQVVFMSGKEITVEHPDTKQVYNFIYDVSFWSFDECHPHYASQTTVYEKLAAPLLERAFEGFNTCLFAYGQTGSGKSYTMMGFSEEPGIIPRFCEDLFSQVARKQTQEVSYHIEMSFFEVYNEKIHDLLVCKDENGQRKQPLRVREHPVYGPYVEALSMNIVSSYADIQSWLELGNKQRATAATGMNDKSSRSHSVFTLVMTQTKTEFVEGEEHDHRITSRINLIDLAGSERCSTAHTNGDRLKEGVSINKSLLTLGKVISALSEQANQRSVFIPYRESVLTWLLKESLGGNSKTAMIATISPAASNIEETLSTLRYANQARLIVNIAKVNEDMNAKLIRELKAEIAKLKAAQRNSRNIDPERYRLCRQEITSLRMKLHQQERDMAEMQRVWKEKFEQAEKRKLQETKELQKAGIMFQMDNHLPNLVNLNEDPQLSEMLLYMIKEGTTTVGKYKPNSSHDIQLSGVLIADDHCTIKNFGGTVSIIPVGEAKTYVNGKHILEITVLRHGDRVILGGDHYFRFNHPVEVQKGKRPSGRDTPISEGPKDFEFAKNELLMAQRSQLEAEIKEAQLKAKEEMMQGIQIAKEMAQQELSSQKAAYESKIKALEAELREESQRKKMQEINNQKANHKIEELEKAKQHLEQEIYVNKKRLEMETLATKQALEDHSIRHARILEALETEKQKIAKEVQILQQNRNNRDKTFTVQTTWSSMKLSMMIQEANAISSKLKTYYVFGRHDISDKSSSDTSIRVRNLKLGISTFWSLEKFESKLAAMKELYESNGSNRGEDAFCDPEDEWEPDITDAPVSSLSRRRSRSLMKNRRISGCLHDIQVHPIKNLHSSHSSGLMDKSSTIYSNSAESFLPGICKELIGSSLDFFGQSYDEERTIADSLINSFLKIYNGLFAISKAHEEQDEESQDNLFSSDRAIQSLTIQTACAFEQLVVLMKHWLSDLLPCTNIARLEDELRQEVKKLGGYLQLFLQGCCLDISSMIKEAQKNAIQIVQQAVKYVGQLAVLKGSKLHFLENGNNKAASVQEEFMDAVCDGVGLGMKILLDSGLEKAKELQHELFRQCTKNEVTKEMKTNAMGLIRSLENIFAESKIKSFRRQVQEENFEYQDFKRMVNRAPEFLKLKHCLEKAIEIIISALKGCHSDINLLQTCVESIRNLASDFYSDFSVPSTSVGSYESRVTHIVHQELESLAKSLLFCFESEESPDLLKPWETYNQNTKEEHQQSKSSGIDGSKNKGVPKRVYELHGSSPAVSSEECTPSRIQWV
UniProt Q96GD4: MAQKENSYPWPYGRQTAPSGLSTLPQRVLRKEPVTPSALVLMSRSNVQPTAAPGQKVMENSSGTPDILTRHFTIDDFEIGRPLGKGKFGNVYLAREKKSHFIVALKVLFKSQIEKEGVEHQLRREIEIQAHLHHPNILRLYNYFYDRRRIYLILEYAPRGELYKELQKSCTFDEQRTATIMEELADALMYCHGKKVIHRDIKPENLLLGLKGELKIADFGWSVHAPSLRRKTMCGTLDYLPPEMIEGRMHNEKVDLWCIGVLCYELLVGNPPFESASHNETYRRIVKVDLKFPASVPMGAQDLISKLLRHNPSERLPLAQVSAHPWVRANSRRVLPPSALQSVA

Row | Molecule | binding
1 | INCENP (endogenous) (from UniProt Q9NQS7 1-918) | binds
2 | KIF20A/MKLP2 (from UniProt O95235 1-890) | binds
3 | KIF23/MKLP1 (protein, UniProt Q02241 1-960) MKSARAKTPRKPTVKKGSQTNLKDPVGVYCRVRPLGFPDQECCIEVINNTTVQLHTPEGYRLNRNGDYKETQYSFKQVFGTHTTQKELFDVVANPLVNDLIHGKNGLLFTYGVTGSGKTHTMTGSPGEGGLLPRCLDMIFNSIGSFQAKRYVFKSNDRNSMDIQCEVDALLERQKREAMPNPKTSSSKRQVDPEFADMITVQEFCKAEEVDEDSVYGVFVSYIEIYNNYIYDLLEEVPFDPIKPKPPQSKLLREDKNHNMYVAGCTEVEVKSTEEAFEVFWRGQKKRRIANTHLNRESSRSHSVFNIKLVQAPLDADGDNVLQEKEQITISQLSLVDLAGSERTNRTRAEGNRLREAGNINQSLMTLRTCMDVLRENQMYGTNKMVPYRDSKLTHLFKNYFDGEGKVRMIVCVNPKAEDYEENLQVMRFAEVTQEVEVARPVDKAICGLTPGRRYRNQPRGPVGNEPLVTDVVLQSFPPLPSCEILDINDEQTLPRLIEALEKRHNLRQMMIDEFNKQSNAFKALLQEFDNAVLSKENHMQGKLNEKEKMISGQKLEIERLEKKNKTLEYKIEILEKTTTIYEEDKRNLQQELETQNQKLQRQFSDKRRLEARLQGMVTETTMKWEKECERRVAAKQLEMQNKLWVKDEKLKQLKAIVTEPKTEKPERPSRERDREKVTQRSVSPSPVPLSSNYIAQISNGQQLMSQPQLHRRSNSCSSISVASCISEWEQKIPTYNTPLKVTSIARRRQQEPGQSKTCIVSDRRRGMYWTEGREVVPTFRNEIEIEEDHCGRLLFQPDQNAPPIRLRHRRSRSAGDRWVDHKPASNMQTETVMQPHVPHAITVSVANEKALAKCEKYMLTHQELASDGEIETKLIKGDIYKTRGGGQSVQFTDIETLKQESPNGSRKRRSSTVAPAQPDGAESEWTDVETRCSVAVEMRAGSQLGPGYQHHAQPKRKKP | binds

Further lines, results first:

Row | binding | Molecule
4 | binds | KIF14 (from UniProt Q15058 1-1648)
5 | binds | Aurora B (endogenous) (from UniProt Q96GD4 1-344)
6 | binds | RacGAP1 (protein, UniProt Q9H0H5 1-632) MDTMMLNVRNLFEQLVRRVEILSEGNEVQFIQLAKDFEDFRKKWQRTDHELGKYKDLLMKAETERSALDVKLKHARNQVDVEIKRRQRAEADCEKLERQIQLIREMLMCDTSGSIQLSEEQKSALAFLNRGQPSSSNAGNKRLSTIDESGSILSDISFDKTDESLDWDSSLVKTFKLKKREKRRSTSRQFVDGPPGPVKKTRSIGSAVDQGNESIVAKTTVTVPNDGGPIEAVSTIETVPYWTRSRRKTGTLQPWNSDSTLNSRQLEPRTETDSVGTPQSNGGMRLHDFVSKTVIKPESCVPCGKRIKFGKLSLKCRDCRVVSHPECRDRCPLPCIPTLIGTPVKIGEGMLADFVSQTSPMIPSIVVHCVNEIEQRGLTETGLYRISGCDRTVKELKEKFLRVKTVPLLSKVDDIHAICSLLKDFLRNLKEPLLTFRLNRAFMEAAEITDEDNSIAAMYQAVGELPQANRDTLAFLMIHLQRVAQSPHTKMDVANLAKVFGPTIVAHAVPNPDPVTMLQDIKRQPKVVERLLSLPLEYWSQFMMVEQENIDPLHVIENSNAFSTPQTPDIKVSLLGPVTTPEHQLLKTPSSSSLSQRVRSTLTKNTPRFGSKSKSATNLGRQGNFFASPMLK
7 | binds | Borealin (endogenous) (protein, UniProt Q53HL2 1-280) MAPRKGSSRVAKTNSLRRRKLASFLKDFDREVEIRIKQIESDRQNLLKEVDNLYNIEILRLPKALREMNWLDYFALGGNKQALEEAATADLDITEINKLTAEAIQTPLKSAKTRKVIQVDEMIVEEEEEEENERKNLQTARVKRCPPSKKRTQSIQGKGKGKRSSRANTVTPAVGRLEVSMVKPTPGLTPRFDSRVFKTPGLRTPAAGERIYNISGNGSPLADSKEIFLTVPVGGGESLRLLASDLQRHSIAQLDPEALGNIKKLSNRLAQICSSIRTHK
